Data as given in paper PMC5006017.
These are yes or no findings as the source states them, for the method shown. In cells and extracts the contact can be indirect. Some results given as binding are weak or reduced against the parent protein; the word gives no strength.

By UniProt entry, the sequences of proteins in these tests, tags left out.
UniProt P03101: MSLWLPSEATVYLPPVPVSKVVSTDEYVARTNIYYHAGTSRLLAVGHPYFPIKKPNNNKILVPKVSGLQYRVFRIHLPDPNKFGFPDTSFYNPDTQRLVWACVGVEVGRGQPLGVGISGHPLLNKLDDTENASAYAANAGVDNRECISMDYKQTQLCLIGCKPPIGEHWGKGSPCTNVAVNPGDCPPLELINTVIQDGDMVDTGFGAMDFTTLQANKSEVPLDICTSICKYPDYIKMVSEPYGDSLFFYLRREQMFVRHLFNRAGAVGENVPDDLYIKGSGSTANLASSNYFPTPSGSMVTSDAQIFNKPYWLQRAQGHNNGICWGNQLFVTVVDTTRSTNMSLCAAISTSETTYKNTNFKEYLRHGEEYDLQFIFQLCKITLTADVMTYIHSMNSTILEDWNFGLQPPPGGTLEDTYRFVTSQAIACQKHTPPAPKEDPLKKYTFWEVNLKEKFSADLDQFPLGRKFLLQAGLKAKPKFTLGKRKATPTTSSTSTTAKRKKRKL
UniProt P08962: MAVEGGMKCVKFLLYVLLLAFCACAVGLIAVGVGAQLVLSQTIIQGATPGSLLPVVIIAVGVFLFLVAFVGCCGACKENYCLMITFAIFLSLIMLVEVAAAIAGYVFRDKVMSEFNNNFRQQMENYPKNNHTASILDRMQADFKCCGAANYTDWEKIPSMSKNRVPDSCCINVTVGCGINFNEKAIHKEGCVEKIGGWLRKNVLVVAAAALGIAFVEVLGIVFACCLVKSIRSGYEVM

Biological target: HPV16 major capsid protein L1 (in HPV16 pseudovirions) (human papillomavirus type 16) (UniProt P03101)
Experiment: co-IP; HeLa cells infected with HPV16 PsV for five hours, lysed in 1% Chaps/Hepes buffer; L1 pAb K75 on anti-rabbit Dynabeads, overnight at 4 °C; Western blot for L1 and CD63

In the case of “tetraspanin CD63 (endogenous, HeLa) (from UniProt P08962 1-238)”, the binding was “binds”.
